No constants are given. Whether binding was seen depends on the method and setting. In cells and extracts the contact can be indirect. Some entries that bind do so weakly or less than the wild type.
Tests used:
Assay in all cases: co-IP; HEK293T cells transiently expressing the tagged proteins; IP with anti-FLAG antibody (reciprocal IPs with anti-STIM1 or anti-mCherry antibodies for STIM1; reciprocal co-IPs for CLPTM1 and PRKCSH); immunoblot; no GPER1 agonist
[1] = target: N-terminally 3xFLAG-tagged GPER1 (G protein-coupled estrogen receptor 1) (UniProt Q99527)
[2] = target: N-terminally 3xFLAG-tagged GPER1 fused to APEX2 (UniProt Q99527)
[3] = target: mCherry-STIM1 (UniProt Q13586)

Chains of the proteins cited; added tags and fusions are not shown. Lines headed by an entry give the natural chain unless they say otherwise; changes in a name come on top.
UniProt Q99527: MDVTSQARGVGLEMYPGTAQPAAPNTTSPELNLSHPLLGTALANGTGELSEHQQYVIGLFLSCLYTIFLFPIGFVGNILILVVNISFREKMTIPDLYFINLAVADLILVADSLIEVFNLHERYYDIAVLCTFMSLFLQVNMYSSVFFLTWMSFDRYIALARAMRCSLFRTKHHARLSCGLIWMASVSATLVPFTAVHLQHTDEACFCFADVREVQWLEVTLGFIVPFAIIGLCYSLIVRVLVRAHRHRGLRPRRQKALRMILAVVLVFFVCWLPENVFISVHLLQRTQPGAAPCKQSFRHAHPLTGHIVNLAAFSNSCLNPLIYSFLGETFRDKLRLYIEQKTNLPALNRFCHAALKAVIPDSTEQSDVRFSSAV
UniProt Q13586: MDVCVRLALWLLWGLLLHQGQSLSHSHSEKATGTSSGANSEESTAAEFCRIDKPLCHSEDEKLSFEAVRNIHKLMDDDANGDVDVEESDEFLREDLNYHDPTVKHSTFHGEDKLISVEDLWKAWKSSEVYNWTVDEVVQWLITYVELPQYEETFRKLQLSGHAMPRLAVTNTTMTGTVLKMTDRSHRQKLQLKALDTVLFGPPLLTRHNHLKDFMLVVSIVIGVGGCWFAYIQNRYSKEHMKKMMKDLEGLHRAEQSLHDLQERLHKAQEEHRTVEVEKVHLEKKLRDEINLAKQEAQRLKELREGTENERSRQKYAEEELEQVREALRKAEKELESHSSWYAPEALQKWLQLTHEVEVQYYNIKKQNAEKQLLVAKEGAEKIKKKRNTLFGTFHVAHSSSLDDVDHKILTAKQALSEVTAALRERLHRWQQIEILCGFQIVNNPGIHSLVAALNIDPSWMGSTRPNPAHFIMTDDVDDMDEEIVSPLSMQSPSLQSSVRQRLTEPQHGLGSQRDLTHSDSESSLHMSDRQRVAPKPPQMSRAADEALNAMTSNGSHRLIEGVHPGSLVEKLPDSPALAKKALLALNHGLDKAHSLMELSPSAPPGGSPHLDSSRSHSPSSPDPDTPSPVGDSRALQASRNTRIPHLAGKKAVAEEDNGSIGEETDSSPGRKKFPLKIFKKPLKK

binding [1] | binding [2] | binding [3] | Substance
binds | binds |  | mCherry-STIM1 (from UniProt Q13586 23-685)
 |  | binds | N-terminally 3xFLAG-tagged GPER1 fused to APEX2 (from UniProt Q99527 1-375) (receptor)
binds |  |  | mCherry-STIM1 (1-241) (from UniProt Q13586 23-241) (domain or fragment)
 |  | binds | N-terminally 3xFLAG-tagged GPER1 (G protein-coupled estrogen receptor 1) (from UniProt Q99527 1-375)

Source: paper PMC10650109
